Measurements: the supplement of paper PMC6411743
± gives the standard deviation of the averaged measurements. Some of the results follow.

Amino acid sequences for entries named in this document (tags omitted). A change or cut given only in a name is not applied to a line headed by its entry.
UniProt P10398: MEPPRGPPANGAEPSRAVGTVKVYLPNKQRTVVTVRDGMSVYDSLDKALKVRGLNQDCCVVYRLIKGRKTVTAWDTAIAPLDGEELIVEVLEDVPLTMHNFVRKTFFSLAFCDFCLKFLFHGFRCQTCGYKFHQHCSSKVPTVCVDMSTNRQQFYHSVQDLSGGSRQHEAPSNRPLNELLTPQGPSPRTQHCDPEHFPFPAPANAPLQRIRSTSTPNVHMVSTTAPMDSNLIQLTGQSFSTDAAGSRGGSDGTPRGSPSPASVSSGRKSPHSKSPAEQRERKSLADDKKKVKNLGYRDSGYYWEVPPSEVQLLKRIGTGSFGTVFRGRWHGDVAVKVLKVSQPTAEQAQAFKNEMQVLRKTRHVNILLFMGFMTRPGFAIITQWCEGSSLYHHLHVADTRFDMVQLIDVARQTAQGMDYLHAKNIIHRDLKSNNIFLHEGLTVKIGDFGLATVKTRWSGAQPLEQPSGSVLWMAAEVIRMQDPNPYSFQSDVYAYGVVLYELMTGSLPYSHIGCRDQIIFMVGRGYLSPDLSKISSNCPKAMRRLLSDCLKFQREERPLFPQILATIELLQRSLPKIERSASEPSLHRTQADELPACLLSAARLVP
UniProt P13984, whole entry: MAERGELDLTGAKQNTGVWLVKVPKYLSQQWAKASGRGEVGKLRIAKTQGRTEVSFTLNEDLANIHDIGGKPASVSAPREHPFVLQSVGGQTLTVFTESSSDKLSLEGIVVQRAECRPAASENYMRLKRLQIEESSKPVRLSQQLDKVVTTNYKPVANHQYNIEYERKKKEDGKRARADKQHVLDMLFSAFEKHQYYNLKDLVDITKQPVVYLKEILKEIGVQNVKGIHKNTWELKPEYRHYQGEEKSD
UniProt P23434: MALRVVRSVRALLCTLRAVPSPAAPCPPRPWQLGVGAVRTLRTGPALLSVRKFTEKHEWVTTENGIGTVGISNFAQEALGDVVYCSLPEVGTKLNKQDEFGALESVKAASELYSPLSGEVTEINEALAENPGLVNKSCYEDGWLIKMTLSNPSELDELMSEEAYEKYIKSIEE
UniProt P13498: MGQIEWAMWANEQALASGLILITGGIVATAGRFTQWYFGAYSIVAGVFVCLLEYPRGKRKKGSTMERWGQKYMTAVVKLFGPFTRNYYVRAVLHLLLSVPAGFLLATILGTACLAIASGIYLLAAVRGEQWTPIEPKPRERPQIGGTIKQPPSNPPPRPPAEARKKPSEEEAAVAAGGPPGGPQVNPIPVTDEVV
UniProt P17900: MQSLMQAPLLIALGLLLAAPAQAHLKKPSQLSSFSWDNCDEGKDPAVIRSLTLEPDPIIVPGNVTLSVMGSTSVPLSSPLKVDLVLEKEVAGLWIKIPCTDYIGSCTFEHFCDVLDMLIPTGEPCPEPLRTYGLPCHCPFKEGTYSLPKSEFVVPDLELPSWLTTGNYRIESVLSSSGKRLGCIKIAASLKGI
UniProt P10636, whole entry: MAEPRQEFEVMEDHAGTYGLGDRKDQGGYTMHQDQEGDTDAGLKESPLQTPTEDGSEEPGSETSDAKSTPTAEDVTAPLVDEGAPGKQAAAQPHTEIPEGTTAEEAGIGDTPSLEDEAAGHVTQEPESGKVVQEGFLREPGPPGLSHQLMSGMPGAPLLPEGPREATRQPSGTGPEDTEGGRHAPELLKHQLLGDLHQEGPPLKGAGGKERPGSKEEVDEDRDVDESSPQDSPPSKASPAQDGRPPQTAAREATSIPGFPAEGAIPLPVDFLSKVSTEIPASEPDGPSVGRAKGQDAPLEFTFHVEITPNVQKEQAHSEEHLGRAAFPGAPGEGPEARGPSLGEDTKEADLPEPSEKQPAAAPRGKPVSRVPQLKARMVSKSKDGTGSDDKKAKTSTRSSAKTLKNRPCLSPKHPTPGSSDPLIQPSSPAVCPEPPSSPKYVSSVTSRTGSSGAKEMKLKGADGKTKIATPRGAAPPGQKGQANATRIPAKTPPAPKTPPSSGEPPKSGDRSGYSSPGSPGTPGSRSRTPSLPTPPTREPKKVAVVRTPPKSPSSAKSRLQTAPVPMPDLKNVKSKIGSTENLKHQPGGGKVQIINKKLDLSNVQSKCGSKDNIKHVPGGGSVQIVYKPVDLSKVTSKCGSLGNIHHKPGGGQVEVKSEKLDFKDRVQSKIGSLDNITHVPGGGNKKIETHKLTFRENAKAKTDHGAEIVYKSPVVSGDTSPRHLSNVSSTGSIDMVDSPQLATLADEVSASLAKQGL
UniProt P14174: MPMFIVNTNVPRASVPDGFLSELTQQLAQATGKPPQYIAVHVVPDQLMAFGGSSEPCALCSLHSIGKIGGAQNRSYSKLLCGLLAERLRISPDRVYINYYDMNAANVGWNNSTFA
UniProt P20226, whole entry: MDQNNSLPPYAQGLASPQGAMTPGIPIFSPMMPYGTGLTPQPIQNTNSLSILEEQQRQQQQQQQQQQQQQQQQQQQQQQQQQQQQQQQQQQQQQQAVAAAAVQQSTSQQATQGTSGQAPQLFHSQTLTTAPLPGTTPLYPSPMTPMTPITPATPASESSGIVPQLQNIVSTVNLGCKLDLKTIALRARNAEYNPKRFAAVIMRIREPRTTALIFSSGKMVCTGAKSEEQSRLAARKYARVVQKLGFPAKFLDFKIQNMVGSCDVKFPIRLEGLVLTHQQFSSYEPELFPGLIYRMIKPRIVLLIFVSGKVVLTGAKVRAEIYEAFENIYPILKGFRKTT
UniProt P35520: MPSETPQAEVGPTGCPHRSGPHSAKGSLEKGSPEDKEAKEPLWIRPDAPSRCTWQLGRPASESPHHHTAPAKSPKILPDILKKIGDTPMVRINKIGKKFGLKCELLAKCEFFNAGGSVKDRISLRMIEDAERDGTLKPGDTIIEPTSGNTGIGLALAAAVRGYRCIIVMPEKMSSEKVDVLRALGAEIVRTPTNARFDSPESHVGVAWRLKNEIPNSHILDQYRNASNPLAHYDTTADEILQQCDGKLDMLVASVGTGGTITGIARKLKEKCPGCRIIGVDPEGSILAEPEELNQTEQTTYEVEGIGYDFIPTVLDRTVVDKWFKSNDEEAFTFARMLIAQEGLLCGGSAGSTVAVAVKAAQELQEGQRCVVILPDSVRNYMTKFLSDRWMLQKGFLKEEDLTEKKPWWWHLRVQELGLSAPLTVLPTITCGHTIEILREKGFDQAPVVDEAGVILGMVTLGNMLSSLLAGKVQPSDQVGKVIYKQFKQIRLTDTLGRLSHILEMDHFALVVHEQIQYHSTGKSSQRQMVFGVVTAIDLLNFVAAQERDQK
UniProt P11831: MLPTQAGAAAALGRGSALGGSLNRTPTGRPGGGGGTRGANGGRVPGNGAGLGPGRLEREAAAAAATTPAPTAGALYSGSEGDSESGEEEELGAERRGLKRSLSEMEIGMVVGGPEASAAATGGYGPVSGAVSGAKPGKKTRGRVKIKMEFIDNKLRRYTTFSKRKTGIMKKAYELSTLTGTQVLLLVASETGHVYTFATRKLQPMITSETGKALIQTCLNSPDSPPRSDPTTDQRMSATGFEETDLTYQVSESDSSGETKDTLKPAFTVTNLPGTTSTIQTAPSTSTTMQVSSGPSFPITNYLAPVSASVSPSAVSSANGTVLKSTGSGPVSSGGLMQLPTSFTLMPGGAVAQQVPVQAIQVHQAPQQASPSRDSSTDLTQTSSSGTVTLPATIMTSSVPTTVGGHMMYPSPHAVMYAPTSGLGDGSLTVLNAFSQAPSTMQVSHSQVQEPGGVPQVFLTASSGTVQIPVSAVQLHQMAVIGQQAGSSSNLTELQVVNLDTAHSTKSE
UniProt P11172: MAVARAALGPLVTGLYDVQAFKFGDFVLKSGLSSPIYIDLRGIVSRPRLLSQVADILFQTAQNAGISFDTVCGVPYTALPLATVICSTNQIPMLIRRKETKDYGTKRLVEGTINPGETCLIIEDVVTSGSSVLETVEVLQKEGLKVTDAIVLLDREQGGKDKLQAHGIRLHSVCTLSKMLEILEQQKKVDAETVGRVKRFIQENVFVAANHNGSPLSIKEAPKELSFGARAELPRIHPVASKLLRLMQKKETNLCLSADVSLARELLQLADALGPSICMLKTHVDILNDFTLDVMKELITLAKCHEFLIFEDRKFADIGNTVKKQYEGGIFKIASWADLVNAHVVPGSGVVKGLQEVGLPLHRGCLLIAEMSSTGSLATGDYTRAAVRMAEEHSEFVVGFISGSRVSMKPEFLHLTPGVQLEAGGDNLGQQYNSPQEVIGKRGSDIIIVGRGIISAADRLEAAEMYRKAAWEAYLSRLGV
UniProt P25098: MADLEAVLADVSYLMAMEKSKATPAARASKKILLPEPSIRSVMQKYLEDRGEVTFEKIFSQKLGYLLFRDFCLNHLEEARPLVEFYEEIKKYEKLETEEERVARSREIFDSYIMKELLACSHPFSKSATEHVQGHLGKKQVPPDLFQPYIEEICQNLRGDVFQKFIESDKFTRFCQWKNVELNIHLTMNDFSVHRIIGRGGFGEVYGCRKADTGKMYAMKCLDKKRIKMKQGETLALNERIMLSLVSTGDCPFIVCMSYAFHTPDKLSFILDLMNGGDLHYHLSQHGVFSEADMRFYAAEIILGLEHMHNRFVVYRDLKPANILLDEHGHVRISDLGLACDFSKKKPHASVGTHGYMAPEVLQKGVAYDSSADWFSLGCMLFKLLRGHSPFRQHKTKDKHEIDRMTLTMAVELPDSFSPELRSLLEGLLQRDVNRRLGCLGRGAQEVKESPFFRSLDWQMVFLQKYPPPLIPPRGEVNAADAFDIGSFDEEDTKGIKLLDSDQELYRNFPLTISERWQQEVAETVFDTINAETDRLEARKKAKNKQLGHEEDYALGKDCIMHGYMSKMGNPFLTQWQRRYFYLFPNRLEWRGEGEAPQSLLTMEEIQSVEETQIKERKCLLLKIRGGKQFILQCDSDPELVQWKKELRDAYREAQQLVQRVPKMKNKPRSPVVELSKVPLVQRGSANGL
UniProt P09525: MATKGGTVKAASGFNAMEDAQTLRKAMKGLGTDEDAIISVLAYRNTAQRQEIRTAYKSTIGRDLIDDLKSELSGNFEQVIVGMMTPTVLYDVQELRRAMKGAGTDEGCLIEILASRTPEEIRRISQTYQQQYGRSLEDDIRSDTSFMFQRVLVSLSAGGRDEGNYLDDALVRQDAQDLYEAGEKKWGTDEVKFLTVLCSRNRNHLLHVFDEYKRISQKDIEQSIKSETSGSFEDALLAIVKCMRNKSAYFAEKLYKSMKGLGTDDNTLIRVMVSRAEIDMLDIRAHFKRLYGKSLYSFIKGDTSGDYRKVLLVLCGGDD
UniProt P13716: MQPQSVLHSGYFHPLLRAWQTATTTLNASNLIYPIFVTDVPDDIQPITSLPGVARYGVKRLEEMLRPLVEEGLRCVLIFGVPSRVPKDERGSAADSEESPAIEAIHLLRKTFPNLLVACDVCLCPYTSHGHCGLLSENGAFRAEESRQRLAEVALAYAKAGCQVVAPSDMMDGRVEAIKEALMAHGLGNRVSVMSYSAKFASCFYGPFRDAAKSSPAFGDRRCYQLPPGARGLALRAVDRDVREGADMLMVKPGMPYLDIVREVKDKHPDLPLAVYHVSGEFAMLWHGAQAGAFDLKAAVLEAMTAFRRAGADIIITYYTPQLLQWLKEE

Compound: Nc1nc2c(ncn2[C@@H]2O[C@H](COP(=O)(O)OP(=O)(O)OP(=O)(O)O)[C@@H](O)[C@H]2O)c(=O)[nH]1 [guanosine triphosphate]
Assay: NP40-soluble protein abundance relative to vehicle (solubility fold change) (ratio); higher = more soluble protein in presence of GTP
Method in brief: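 Crude Jurkat lysate, prepared by Dounce homogenisation, was exposed to eight concentrations from 0.1 to 10 mM for 10 min at room temperature and then 3 min at 37 °C. Solubilisation used 0.8% NP40 with benzonase for 60 min at 4 °C, followed by ultracentrifugation and TMT labelling of the supernatant for LC-MS/MS. After vsn normalisation of intensities, each value is the fold change against the detergent-processed vehicle within each replicate, across three independent experiments.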

Target	NP40-soluble protein abundance (concentration: 0.1mM)	NP40-soluble protein abundance (concentration: 0.5mM)	NP40-soluble protein abundance (concentration: 1mM)	NP40-soluble protein abundance (concentration: 2mM)	NP40-soluble protein abundance (concentration: 4mM)	NP40-soluble protein abundance (concentration: 6mM)	NP40-soluble protein abundance (concentration: 8mM)	NP40-soluble protein abundance (concentration: 10mM)
NCK1 (UniProt P16333)	1.01 ± 0.03	0.993 ± 0.032	0.965 ± 0.026	0.94 ± 0.022	0.942 ± 0.037	0.928 ± 0.031	0.925 ± 0.033	0.879 ± 0.049
UniProt P10398 and related entries	1.1 ± 0.057	1.19 ± 0.11	1.21 ± 0.17	1.27 ± 0.13	1.21 ± 0.26	1.27 ± 0.21	1.25 ± 0.14	1.2 ± 0.14
GTF2F2 (UniProt P13984)	0.962 ± 0.057	0.98 ± 0.033	0.961 ± 0.032	0.951 ± 0.028	0.95 ± 0.026	0.961 ± 0.022	0.963 ± 0.044	0.951 ± 0.045
GCSH (UniProt P23434)	0.91 ± 0.021	0.889 ± 0.088	0.958 ± 0.043	0.908 ± 0.097	0.866 ± 0.083	0.91 ± 0.12	0.908 ± 0.098	0.882 ± 0.048
UniProt P13498 and related entries	1.01 ± 0.053	1 ± 0.073	1.02 ± 0.13	0.941 ± 0.14	0.929 ± 0.09	0.941 ± 0.086	0.973 ± 0.051	0.963 ± 0.069
GM2A (UniProt P17900)	0.851 ± 0.015	0.931 ± 0.022	0.876 ± 0.013	0.923 ± 0.1	0.853 ± 0.042	0.859 ± 0.013	0.856 ± 0.12	0.927 ± 0.067
UniProt P10636-2|P10636-6	0.877 ± 0.058	0.831 ± 0.063	1.05 ± 0.064	1.05 ± 0.14	0.974 ± 0.054	0.94 ± 0.047	0.935 ± 0.11	1.02 ± 0.019
MIF (UniProt P14174)	0.966 ± 0.12	0.926 ± 0.12	0.945 ± 0.12	0.952 ± 0.1	0.962 ± 0.18	0.906 ± 0.096	0.956 ± 0.14	0.973 ± 0.11
UniProt P20226 and related entries	1.14 ± 0.12	1.03 ± 0.043	1.05 ± 0.082	1.01 ± 0.05	1.12 ± 0.21	1.02 ± 0.067	1.07 ± 0.1	1.05 ± 0.028
P0DN79 and related entries (UniProt P35520+P0DN79)	1.07 ± 0.06	1.03 ± 0.052	1.01 ± 0.026	1.01 ± 0.064	1.02 ± 0.017	0.984 ± 0.1	1.01 ± 0.036	1.03 ± 0.075
SRF (UniProt P11831)	0.972 ± 0.1	0.904 ± 0.23	0.964 ± 0.25	0.908 ± 0.16	0.922 ± 0.15	0.932 ± 0.11	0.923 ± 0.18	0.965 ± 0.16
UMPS (UniProt P11172)	1.06 ± 0.016	1.05 ± 0.034	0.943 ± 0.021	0.946 ± 0.041	0.908 ± 0.044	0.905 ± 0.032	0.878 ± 0.051	0.843 ± 0.079
UniProt P25098	1.01 ± 0.031	1.01 ± 0.024	0.931 ± 0.028	0.924 ± 0.016	0.915 ± 0.047	0.909 ± 0.044	0.89 ± 0.038	0.874 ± 0.063
UniProt P09525 and related entries	0.977 ± 0.076	0.957 ± 0.085	0.898 ± 0.1	0.899 ± 0.075	0.873 ± 0.11	0.856 ± 0.059	0.828 ± 0.12	0.826 ± 0.093
UniProt P13716 and related entries	1.03 ± 0.018	1.03 ± 0.024	0.995 ± 0.049	0.999 ± 0.032	1.03 ± 0.022	0.964 ± 0.022	0.992 ± 0.044	0.991 ± 0.043

Shown comma-delimited: entries from further up.
Target,NP40-soluble protein abundance (concentration: 0.1mM),NP40-soluble protein abundance (concentration: 0.5mM),NP40-soluble protein abundance (concentration: 1mM),NP40-soluble protein abundance (concentration: 2mM),NP40-soluble protein abundance (concentration: 4mM),NP40-soluble protein abundance (concentration: 6mM),NP40-soluble protein abundance (concentration: 8mM),NP40-soluble protein abundance (concentration: 10mM)
SRF (UniProt P11831),0.972 ± 0.1,0.904 ± 0.23,0.964 ± 0.25,0.908 ± 0.16,0.922 ± 0.15,0.932 ± 0.11,0.923 ± 0.18,0.965 ± 0.16
UniProt P09525 and related entries,0.977 ± 0.076,0.957 ± 0.085,0.898 ± 0.1,0.899 ± 0.075,0.873 ± 0.11,0.856 ± 0.059,0.828 ± 0.12,0.826 ± 0.093
